Data: publication PMC3266917
Results are given in words; binding and its absence hold for the method and conditions named. Binding seen in cells or lysates may run through a third protein. Some binding calls cover weakened binding; strength is not graded here. Sequences can lack the tags named with a protein. Each block holds one binder with its values, some of them ahead of it.

Molecular target: T1, Flag-FBXO6 WT (human F-box protein 6) (human) (UniProt Q9NRD1)
T1 sequence: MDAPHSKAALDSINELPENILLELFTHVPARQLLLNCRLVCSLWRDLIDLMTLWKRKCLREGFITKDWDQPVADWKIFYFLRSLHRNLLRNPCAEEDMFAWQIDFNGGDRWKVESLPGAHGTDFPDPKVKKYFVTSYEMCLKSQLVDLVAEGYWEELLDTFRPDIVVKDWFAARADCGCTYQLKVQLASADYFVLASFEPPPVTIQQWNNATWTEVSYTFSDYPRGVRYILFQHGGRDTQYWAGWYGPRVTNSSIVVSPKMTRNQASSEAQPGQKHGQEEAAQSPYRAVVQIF
Assay: co-IP; lysate of 293T cells transfected with Flag-FBXO6 WT or Null (50 mM Tris-HCl pH 7.5, 150 mM NaCl, 0.5% Nonidet P40); anti-FLAG M2 affinity resin overnight at 4°C; eluted with 3×Flag-peptide; immunoblot

- binding: binds
B1: RPN1 (Ribophorin-1) (protein, UniProt P04843 24-607)
chain: ASSEAPPLINEDVKRTVDLSSHLAKVTAEVVLAHLGGGSTSRATSFLLALEPELEARLAHLGVQVKGEDEEENNLEVRETKIKGKSGRFFTVKLPVALDPGAKISVIVETVYTHVLHPYPTQITQSEKQFVVFEGNHYFYSPYPTKTQTMRVKLASRNVESYTKLGNPTRSEDLLDYGPFRDVPAYSQDTFKVHYENNSPFLTITSMTRVIEVSHWGNIAVEENVDLKHTGAVLKGPFSRYDYQRQPDSGISSIRSFKTILPAAAQDVYYRDEIGNVSTSHLLILDDSVEMEIRPRFPLFGGWKTHYIVGYNLPSYEYLYNLGDQYALKMRFVDHVFDEQVIDSLTVKIILPEGAKNIEIDSPYEISRAPDELHYTYLDTFGRPVIVAYKKNLVEQHIQDIVVHYTFNKVLMLQEPLLVVAAFYILFFTVIIYVRLDFSITKDPAAEARMKVACITEQVLTLVNKRIGLYRHFDETVNRYKQSRDISTLNSGKKSLETEHKALTSEIALLQSRLKTEGSDLCDRVSEMQKLDAQVKELVLKSAVEAERLVAGKLKKDTYIENEKLISGKRQELVTKIDHILDAL

- binding: binds
B2: DDOST (Oligosaccharyl transferase 48 kDa subunit) (protein, UniProt P39656 43-456)
chain: SGPRTLVLLDNLNVRETHSLFFRSLKDRGFELTFKTADDPSLSLIKYGEFLYDNLIIFSPSVEDFGGNINVETISAFIDGGGSVLVAASSDIGDPLRELGSECGIEFDEEKTAVIDHHNYDISDLGQHTLIVADTENLLKAPTIVGKSSLNPILFRGVGMVADPDNPLVLDILTGSSTSYSFFPDKPITQYPHAVGKNTLLIAGLQARNNARVIFSGSLDFFSDSFFNSAVQKAAPGSQRYSQTGNYELAVALSRWVFKEEGVLRVGPVSHHRVGETAPPNAYTVTDLVEYSIVIQQLSNGKWVPFDGDDIQLEFVRIDPFVRTFLKKKGGKYSVQFKLPDVYGVFQFKVDYNRLGYTHLYSSTQVSVRPLQHTQYERFIPSAYPYYASAFSMMLGLFIFSIVFLHMKEKEKSD
